No constants are given. Whether binding was seen depends on the method and setting. In cells and extracts the contact can be indirect. Some binding calls cover weakened binding; strength is not graded here.
Legend:
[1] = molecular target: Gag-myc, full-length Gag molecule bearing a C-terminal myc epitope tag (HIV-1) (UniProt P04591); assay: reciprocal coimmunoprecipitation with anti-HA from 293T cells, anti-myc immunoblot
[2] = molecular target: HA-TSG-5′, N-terminal fragment of TSG101 (codons 10-240) with an N-terminal HA tag (human) (UniProt Q99816); assay: coimmunoprecipitation with anti-myc from 293T cells, anti-HA immunoblot
[3] = molecular target: HA-AP3D-5′, N-terminal fragment of the AP-3 δ subunit (amino acids 1-742) with an N-terminal HA epitope tag (UniProt O14617); assay: as above
[4] = molecular target: HA-AP3D-5′, N-terminal fragment of the AP-3 δ subunit (amino acids 1-742) with an N-terminal HA epitope tag (UniProt O14617); assay: coimmunoprecipitation with anti-myc from 293T cells (legend of FIG. 3A)
[5] = molecular target: purified protein fragment representing the interacting domain of the AP-3 delta subunit (amino acids 554-844) (UniProt O14617); assay: pulldown of the purified fragment on bead-bound GST-Gag fusion proteins, Coomassie staining
[6] = molecular target: purified protein fragment representing the interacting domain of the AP-3 delta subunit (amino acids 554-844) (UniProt O14617); assay: pulldown of the purified fragment on bead-bound GST-Gag fusion proteins, Coomassie staining (legend of FIG. 2C)

Protein sequences, listed by entry. Tags and fused reporters are not part of them. Lines headed by an entry give the natural chain unless they say otherwise; changes in a name come on top. Chains listed by the source or under a name are the forms on record and can include a tag or linker. Residues count along the entry.
UniProt Q99816, residues 10-240: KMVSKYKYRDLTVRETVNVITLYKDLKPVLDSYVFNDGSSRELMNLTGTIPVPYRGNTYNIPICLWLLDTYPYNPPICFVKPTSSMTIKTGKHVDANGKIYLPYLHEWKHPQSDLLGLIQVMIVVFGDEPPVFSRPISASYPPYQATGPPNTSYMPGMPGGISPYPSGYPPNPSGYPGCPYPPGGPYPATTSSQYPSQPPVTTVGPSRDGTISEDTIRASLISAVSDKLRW
HA-AP3D-5′, N-terminal fragment of the AP-3 δ subunit (amino acids 1-742) with an N-terminal HA epitope tag (O14617, residues 1-742): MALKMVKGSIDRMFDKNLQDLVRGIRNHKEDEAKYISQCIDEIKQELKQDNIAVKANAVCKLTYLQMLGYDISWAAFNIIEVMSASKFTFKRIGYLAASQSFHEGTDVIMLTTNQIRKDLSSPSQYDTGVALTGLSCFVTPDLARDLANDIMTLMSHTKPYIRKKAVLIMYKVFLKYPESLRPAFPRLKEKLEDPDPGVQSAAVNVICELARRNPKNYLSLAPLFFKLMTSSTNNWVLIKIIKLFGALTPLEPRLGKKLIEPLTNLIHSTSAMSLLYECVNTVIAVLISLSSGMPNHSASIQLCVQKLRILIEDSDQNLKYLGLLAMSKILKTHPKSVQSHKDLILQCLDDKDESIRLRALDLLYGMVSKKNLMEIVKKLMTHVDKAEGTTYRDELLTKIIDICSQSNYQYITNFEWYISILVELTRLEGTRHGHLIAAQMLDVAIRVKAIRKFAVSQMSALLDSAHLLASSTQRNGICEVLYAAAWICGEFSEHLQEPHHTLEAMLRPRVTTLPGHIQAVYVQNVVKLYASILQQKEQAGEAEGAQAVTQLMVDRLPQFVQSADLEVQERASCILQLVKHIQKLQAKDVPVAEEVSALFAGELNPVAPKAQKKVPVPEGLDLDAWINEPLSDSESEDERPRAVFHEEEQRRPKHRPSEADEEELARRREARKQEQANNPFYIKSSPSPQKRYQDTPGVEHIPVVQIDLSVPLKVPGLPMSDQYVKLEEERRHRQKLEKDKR
purified protein fragment representing the interacting domain of the AP-3 delta subunit (amino acids 554-844) (O14617, residues 554-844): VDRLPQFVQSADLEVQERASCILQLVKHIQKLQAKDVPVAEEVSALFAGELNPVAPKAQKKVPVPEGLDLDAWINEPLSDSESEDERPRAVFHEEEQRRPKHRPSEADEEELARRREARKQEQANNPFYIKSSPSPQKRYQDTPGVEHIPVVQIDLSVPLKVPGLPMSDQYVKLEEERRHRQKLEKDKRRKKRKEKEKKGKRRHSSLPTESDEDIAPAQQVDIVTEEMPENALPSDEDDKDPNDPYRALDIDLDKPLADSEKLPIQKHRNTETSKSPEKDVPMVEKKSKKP

Substance: HA-AP3D-5′, N-terminal fragment of the AP-3 δ subunit (amino acids 1-742) with an N-terminal HA epitope tag (from UniProt O14617 1-742)
- binding [1]: binds

Substance: Gag-myc, full-length Gag molecule bearing a C-terminal myc epitope tag (from UniProt P04591 2-500)
- binding [2]: binds
- binding [3]: binds
- binding [4]: binds

Substance: GST-MA (from UniProt P04591 1-132)
- binding [5]: binds
- binding [6]: binds

Reference: patent US20060166191A1
